Experimental data from the supplement of paper PMC11150407.
Where “and” joins values, the source holds several entries; their conditions need not be identical. Equal values may be shown once. Where a name gives a salt, the structure may show the parent alone. About 180 (8.6%) of roughly 2,100 compounds showed an effect of 50% or more. Some of the results follow.

Tested on: MOLM1 and UCSD/AML1 (averaged)
Experiment: cell viability relative to DMSO control (POC); higher = less growth inhibition
Conditions: 1 µM; 72 h
Procedure: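 Primary viability screen in the 3q26 EVI1-high AML cell lines MOLM1 and UCSD/AML1 (1.5e3 cells/well, 384-well), compounds at 1 uM for 72 h. ATP CellTiter-Glo read-out given as percent of viable cells over DMSO control (POC), averaged over duplicates. DMSO was the negative control and 5 uM etoposide the positive control. This mapping covers the MicroSource Spectrum and Selleck anticancer libraries (drug names).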

Row | SMILES | cell viability
1 | COc1cc(Nc2ncc3c(n2)-c2ccc(Cl)cc2C(c2c(F)cccc2OC)=NC3)ccc1C(=O)O [MLN8237 (Alisertib)] | 49.6%
2 | C[C@H]1C(=O)CC[C@@H]2[C@]1(C)CC[C@H]1[C@@]2(C)CC[C@@]2(C)[C@@H]3CC(C)(C)CC[C@]3(C)CC[C@]12C | 113%
3 | OC(CCN1CCCCC1)(c1ccccc1)c1ccccc1 | 87.8%
4 | CCCCC(=O)N(Cc1ccc(-c2ccccc2-c2nnn[nH]2)cc1)[C@H](C(=O)O)C(C)C | 93.9%
5 | Cc1cnc(NC(=O)Nc2cc(Br)c(C)cc2OC[C@@H]2CNCCO2)cn1 | 46.1%
6 | O=C(O)c1cc(=O)c2ccccc2[nH]1 | 108%
7 | CCCCCCCCCCCC[C@@H](C(=O)O)[C@H](C)C(=O)O | 96%
8 | Cc1c(C(=O)Nc2ccc(N3C[C@@H](C)O[C@@H](C)C3)nc2)cccc1-c1ccc(OC(F)(F)F)cc1 [LDE225 (NVP-LDE225, Erismodegib)] | 94.6%
9 | Nc1cc(C(F)(F)F)c(-c2cc(N3CCOCC3)nc(N3CCOCC3)n2)cn1 | 26.9%
10 | O=C1c2cccc(O)c2C(=O)c2c(O)cccc21 | 104%
11 | CCOC(N)=O | 108%
12 | O=c1cc(N2CCOCC2)oc2c(-c3ccccc3)cccc12 | 73.8%
13 | C[C@H]1[C@H](C)CC[C@]2(C(=O)O)CC[C@]3(C)C(=CC[C@@H]4[C@@]5(C)C[C@@H](O)[C@H](O)[C@@](C)(CO)[C@@H]5[C@H](O)C[C@]43C)[C@H]12 | 86.8%
14 | N[C@@H](Cc1ccc(O)c(O)c1)C(=O)O | 106%
15 | CN1CCN2c3ccccc3Cc3ccccc3C2C1 (centres undefined) | 102%
16 | COc1cc(/C=C/CO)ccc1O | 87.7%
17 | COc1cc(O)cc(OC)c1OC | 95.9%
18 | O=C(NC(Cc1cc(=O)[nH]c2ccccc12)C(=O)O)c1ccc(Cl)cc1 (centres undefined) | 110%
19 | COC(=O)[C@H]1[C@H]2C[C@H]3c4[nH]c5cc(OC)ccc5c4CCN3C[C@H]2C[C@@H](OC(=O)c2cc(OC)c(OC)c(OC)c2)[C@@H]1OC | 111%
20 | CC(C)(C)NC[C@H](O)COc1cccc2c1CCCC2=O | 95.7%
21 | C[N+](C)(C)CCOC(N)=O | 107%
22 | C[C@H](CCC(=O)O)[C@H]1CC[C@H]2[C@@H]3C(=O)C[C@@H]4CC(=O)CC[C@]4(C)[C@H]3CC(=O)[C@]12C | 96.7% and 105%
23 | CO[C@H]1C[C@H](O[C@@H]2/C(C)=C/C[C@@H]3C[C@@H](C[C@]4(CC[C@H](C)[C@@H](C5CCCCC5)O4)O3)OC(=O)[C@@H]3C=C(C)/C(=N/O)[C@H]4OC/C(=C\C=C\[C@@H]2C)[C@]43O)O[C@@H](C)[C@@H]1O | 101%

Row | SMILES | cell viability
24 | Cc1nc2sccn2c(=O)c1CCN1CCC(=C(c2ccc(F)cc2)c2ccc(F)cc2)CC1 | 87.6%
25 | O=C1c2c(O)ccc(O)c2C(=O)c2c(NCCNCCO)ccc(NCCNCCO)c21 [Mitoxantrone Hydrochloride] | 2.15%
26 | O=C1c2c(O)ccc(O)c2C(=O)c2c(NCCNCCO)ccc(NCCNCCO)c21 | 8.27%
27 | C[C@@](Cc1ccc(O)c(O)c1)(NN)C(=O)O | 95.6%
28 | O=c1[nH]cnc2nc[nH]c12 | 102%
29 | Nc1ncnc2c1ncn2[C@@H]1O[C@H](CO)[C@@H](O)[C@@H]1O | 93.9%
30 | COc1cc(Nc2c(C#N)cnc3cc(OCCCN4CCN(C)CC4)c(OC)cc23)c(Cl)cc1Cl [Bosutinib (SKI-606)] | 21.3%
31 | N#Cc1ccc2c(c1)N(CCCN1CCC(O)CC1)c1ccccc1S2 | 109%
32 | CCC1(c2ccccc2)C(=O)NCNC1=O | 97.5%
33 | CC(C)CC(NC(=O)OCC1c2ccccc2-c2ccccc21)C(=O)O (stereo in doubt) | 105%
34 | c1ccc(-c2ccc(C(c3ccccc3)n3ccnc3)cc2)cc1 (centres undefined) | 96.7%
35 | Oc1c(Cl)cc(Cl)c2cccnc12 | 100%
36 | CN(C)CCC(c1ccc(Br)cc1)c1ccccn1 (centres undefined) | 94.8%
37 | CC(C)NCC(O)COc1ccc(CC(N)=O)cc1 (centres undefined) | 99.5%
38 | NC(Cn1ccc(=O)c(O)c1)C(=O)O (centres undefined) | 92.7%
39 | CN1CCN(CC(=O)N2c3ccccc3C(=O)Nc3cccnc32)CC1 | 95.2%
40 | Cc1ccc([C@@H]2O[C@H](CO)[C@@H](O)[C@H](O)[C@H]2O)cc1Cc1ccc(-c2ccc(F)cc2)s1 [Canagliflozin] | 91%
41 | COC(=O)Nc1nc2cc(Sc3ccccc3)ccc2[nH]1 | 41.9%
42 | Oc1cc2c(cc1O)C(c1ccccc1)CNCC2 (centres undefined) | 104%
43 | Cc1cnc(Nc2ccc(OCCN3CCCC3)cc2)nc1Nc1cccc(S(=O)(=O)NC(C)(C)C)c1 | 13%
44 | CCN(CC)C(C)CN1c2ccccc2Sc2ccccc21 (centres undefined) | 99.7%
45 | CCCNC(=O)NS(=O)(=O)c1ccc(Cl)cc1 | 101%
46 | CC(=O)O[C@]1(C(C)=O)CC[C@H]2[C@@H]3C=C(Cl)C4=CC(=O)CC[C@]4(C)[C@H]3CC[C@@]21C | 90.3%

Row | SMILES | cell viability
47 | Clc1cccc(Cl)c1NC1=NCCN1 | 103%
48 | CO[C@H]1/C=C/O[C@@]2(C)Oc3c(C)c(O)c4c(O)c(c5c(nc6cc(C)ccn65)c4c3C2=O)NC(=O)/C(C)=C\C=C\[C@H](C)[C@H](O)[C@@H](C)[C@@H](O)[C@@H](C)[C@H](OC(C)=O)[C@@H]1C | 106%
49 | CCCCCCCCCCCCCCCC(=O)OC[C@H](O)[C@H]1OC(=O)C(O)=C1O | 99.4%
50 | CC(=O)OC/C=C(\C)CC/C=C(\C)CC/C=C(\C)CC/C=C(\C)CC/C=C(\C)CC/C=C(\C)CC/C=C(\C)CC/C=C(\C)CCC=C(C)C | 106%
51 | COc1c(C)cnc(Cn2cnc3c(Cl)nc(N)nc32)c1C | 4.8%
52 | CN(C)C(=N)NC(=N)N | 95.2%
53 | NCCCCCC(=O)O | 96.4%
54 | c1ccc2c(CCNc3ccc(Nc4ccncc4)cc3)c[nH]c2c1 | 43.4%
55 | CNCCc1ccccn1 | 102%
56 | CC1CC2C3CCC4=CC(=O)C=CC4(C)C3(F)C(O)CC2(C)C1C(=O)CO (centres undefined) | 61.4%
57 | CC=CC(=O)N(CC)c1ccccc1C | 56.3%
58 | CC(=O)[C@@]1(O)CC[C@H]2[C@@H]3CCC4=CC(=O)CC[C@]4(C)[C@H]3CC[C@@]21C | 105%
59 | Nc1nccc(Oc2ccc(NC(=O)c3c[nH]cc(-c4ccc(F)cc4)c3=O)cc2F)c1Cl | 83.2%
60 | NC(=O)Nc1cc(-c2cccc(F)c2)sc1C(=O)N[C@H]1CCCNC1 | 5.84%
61 | C[C@H]1[C@H](C)CC[C@]2(C(=O)O)CC[C@]3(C)C(=CC[C@@H]4[C@@]5(C)CC[C@H](O)C(C)(C)[C@@H]5CC[C@]43C)[C@H]12 | 95.9%
62 | NC1(C(=O)O)CC1 | 95.2%
63 | Oc1cc2c(cc1O)C1c3ccc(O)c(O)c3OCC1(O)C2 (centres undefined) | 103%
64 | CCN(CC)C(=O)c1ccc(O)c(OC)c1 | 95.6%
65 | CSCC[C@H](NC=O)C(=O)N[C@@H](Cc1ccccc1)C(=O)O | 105%
66 | CC(=O)O[C@@H]1C[C@H]2C(C)(C)C(=O)C=C[C@]2(C)[C@H]2CC[C@@]3(C)[C@H](c4ccoc4)OC(=O)[C@H]4O[C@]43[C@@]21C | 82.8%
67 | Cc1cc2nc3c(=O)[nH]c(=O)nc-3n(C[C@H](O)[C@H](O)[C@H](O)CO)c2cc1C | 105%
68 | CN(C)CCOC(c1ccccc1)c1ccccc1.Cn1c(=O)c2[nH]c(Cl)nc2n(C)c1=O | 113%
69 | C[C@@H]1CC[C@@]23CCC4(C)[C@@](C=CC5[C@@]6(C)CC[C@H](O)C(C)(C)C6CC[C@]54C)(OC2=O)C3[C@H]1C (some centres undefined) | 90.8%

Row | SMILES | cell viability
70 | COc1cc(C)c(C(=O)Oc2cc(C)c(C(=O)O)c(O)c2C)c(OC)c1C | 109%
71 | O=C1NCC2(CCN(CCc3ccccc3)CC2)O1 | 102%
72 | Clc1ccc2c(c1)CCc1cccnc1C2=C1CCNCC1 | 98.9%
73 | CCCCCCNC(=O)n1cc(F)c(=O)[nH]c1=O [Carmofur] | 103%
74 | CCCCCCNC(=O)n1cc(F)c(=O)[nH]c1=O | 88.6%
75 | COc1ccc(Cl)cc1C(=O)NCCc1ccc(S(=O)(=O)NC(=O)NC2CCCCC2)cc1 | 107%
76 | CC[C@@H]1C(=O)N(C)c2cnc(Nc3ccc(C(=O)N[C@H]4CC[C@H](N5CCN(CC6CC6)CC5)CC4)cc3OC)nc2N1C(C)C [BI6727 (Volasertib)] | 14.5%
77 | CC#C[C@]1(O)CC[C@H]2[C@@H]3CCC4=CC(=O)CCC4=C3[C@@H](c3ccc(N(C)C)cc3)C[C@@]21C [Mifepristone (Mifeprex)] | 90%
78 | O=C(O)C1=CC(=C(c2ccc(O)c(C(=O)O)c2)c2ccc(O)c(C(=O)O)c2)C=CC1=O | 109%
79 | C[C@@H]1C/C=C/C=C/C=C/C=C/[C@H](O[C@@H]2O[C@H](C)[C@@H](O)[C@H](N)[C@@H]2O)C[C@@H]2O[C@](O)(C[C@@H](O)C[C@H]3O[C@@H]3/C=C/C(=O)O1)C[C@H](O)[C@H]2C(=O)O | 96.4%
80 | NCCC(=O)N[C@@H](Cc1c[nH]cn1)C(=O)O | 89.7%
81 | CC1(C)O[C@@H]2C[C@H]3[C@@H]4C[C@H](F)C5=CC(=O)C=C[C@]5(C)[C@@]4(F)[C@@H](O)C[C@]3(C)[C@]2(C(=O)CO)O1 | 71.2%
82 | CC(C)=CCc1c2c(c3occ(-c4ccc(O)c(O)c4)c(=O)c3c1O)C=CC(C)(C)O2 | 109%
83 | COc1cc(NS(=O)(=O)c2ccc(N)cc2)ncn1 | 97%
84 | Cc1cc(C)nc(NS(=O)(=O)c2ccc(N)cc2)n1 | 97.6%
85 | CN(C(=O)CN(CCO)CC(=O)N(C)C(C)(C)Cc1ccccc1)C(C)(C)Cc1ccccc1 | 97.7%
86 | CCOC(=O)Nc1nc2ccccc2[nH]1 | 103%
87 | CC(C)(C)c1cc(NC(=O)Nc2ccc(-c3cn4c(n3)sc3cc(OCCN5CCOCC5)ccc34)cc2)no1 [Quizartinib (AC220)] | 50.9%
88 | COc1ccc(-c2oc3cc(OC)c(OC)c(OC)c3c(=O)c2OC)cc1OC | 101%
89 | NC[C@H]1O[C@H](O[C@H]2[C@H](O)[C@@H](O[C@H]3O[C@H](CO)[C@@H](O)[C@H](N)[C@H]3O)[C@H](N)C[C@@H]2N)[C@H](N)C[C@@H]1O | 122%
